Laboratory results taken from PubChem BioAssay AID2736 (Broad Institute, 2010).
The inconclusive results got no clear call from the source; some entries with a clear call stand among them for comparison. Calls of active or inactive are those of the source.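 How the source made its calls: active means every replicate shows more than 75% inhibition of signal versus neutral control wells; inconclusive means half to three quarters of replicates exceed 75% inhibition; inactive means fewer than half of replicates exceed 75% inhibition.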

assay: Vibrio harveyi AI-2 signaling luminescence modulation – JMH597 strain, confirmation (AID 2736); details: Vibrio harveyi JMH597 AI-2 quorum sensing luminescence, 9 h; at 7.5 µM; hits give high values; luxN and CqsS knockout, AI-2 only

Compound | inhibition
Cc1ccc(OCCC(=O)Nc2ccc(F)c(Cl)c2)cc1 | inconclusive: 77.1%
O=C(CCCn1nnc(-c2cccnc2)n1)c1ccc(F)cc1 | active: 94.7%
Nc1cccc(C(=O)Nc2cccc3ncccc23)c1 | inactive: -3.26%
NC(=S)Nc1cc(Cl)cc(Cl)c1 | inconclusive: 73.7%
COc1ccccc1N1CCN(C(=O)c2cccc(N3C(=O)NC4CC3(C)Oc3c(OC)cccc34)c2)CC1 (stereo unspecified) | inactive: 6.09%
O=C(COc1cccc(C(F)(F)F)c1)Nc1ccc(S(=O)(=O)N2CCCC2)cc1 | inconclusive: 89.2%
